We go through 38 compounds from PubChem BioAssay AID2685 (National Center for Advancing Translational Sciences (NCATS), 2010).

The other results are listed elsewhere or left out. Shown are side measurements of this screen, not its main read-out; they come without a call. Most of these compounds were active or inconclusive in the main read-out, so they are no random draw. The note in brackets gives the kind of curve behind each potency; many fits are weak.

The assay in a line: qHTS Assay for Lipid Storage Modulators in Drosophila S3 Cells.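 As to cell number change: cells counted by Cell Tracker Red CMTPX staining in the red channel.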 The note with it: BODIPY lipid droplet fluorescence, 18-24 h; for cell number change: measured here: cell count max response, cells fed with added oleic acid. In a few lines:
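Drosophila S3 cells loaded with oleic acid (400 uM, as added) and compounds at several concentrations; lipid droplets imaged by 488-nm laser-scanning cytometry, 500–530 nm intensity and object ratio to cell channel. Percent activity normalized to 20 uM Triacsin C.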
Background: In qHTS, concentration-response curves come from the screen itself.

Setting [1] is: measured here: cell number channel AC50, cells fed with added oleic acid.
[2] abbreviates: measured here: lipid fluorescence (Fed channel) AC50, cells fed with added oleic acid.

For orientation: AC50 means the concentration giving half of the maximal activity seen. Higher therefore signals activity only at high concentration. For the compound `CC(C)(C)N1NC(=O)Nc2ccccc2C1=O`, the cell number change is -31.9%. Also, the AC50 under setting [1] is 7.31 µM [falling, full curve, poor fit]. Regarding `COc1ccc(/C=N/NC(=O)c2c(C)nc3ccc(Br)cn23)cc1OC`, the cell number change came out at 27.1%. For the compound `COc1ccc(CCNC(=O)CSc2nnc(-c3cccc(F)c3)o2)cc1OC`, the cell number change was -9.42%. Further, under setting [2], the concentration at half-maximal activity (AC50) is 1.84 µM [rising, partial curve]. For `COc1ccc(-c2noc(CCC(=O)NCCc3ccccc3)n2)cc1OC`, the cell number change is -13.4%. In addition, the AC50 under setting [2] is 14.6 µM [rising, partial curve, poor fit]. `CCOC(=O)C1=C(C)OC(N)=C(C#N)C1c1ccc(OC)c(C)c1OC` (stereo not given): the cell number change came out at 18.1%.

On to `Cc1cccc(-n2cc(-c3ccccc3)c3c(NN4CCOCC4)ncnc32)c1`, for which the cell number change was 39.4%. The AC50 under setting [1] is 8.2 µM [rising, partial curve, poor fit]. For the compound `O=C(COC(=O)CNS(=O)(=O)c1ccccc1)NC12CC3CC(CC(C3)C1)C2`, the cell number change is 43.2%. Regarding `CCNc1cc(N2CCOCC2)nc(SC)n1`, the cell number change stood at 4.15%. Moreover, the half-maximal activity concentration (AC50) under setting [2] was 1.41 µM [rising, partial curve, poor fit].

For `COc1cc(CNc2ccc(N3CCCC3)cc2)ccc1OCc1ccccc1F`, the cell number change was 4.29%. Also, the AC50 under setting [2] is 25.9 µM [rising, single point]. On to `COc1ccc(C2NC(=O)C(C#N)=C(S)N2c2cccc(C)c2)cc1OC` (stereo not given), for which the cell number change was 24.6%. Besides, the concentration at half-maximal activity (AC50) under setting [2] was 0.13 µM [falling, single point]. On to `Cn1c(=O)c2c(nc(SCc3cc4c(cc3Cl)OCO4)n2C)n(C)c1=O`, for which the cell number change is 2.72%. Consider `CCn1c(CN2CCN(C(=O)c3ccco3)CC2)nc2c1c(=O)n(C)c(=O)n2C`, for which the cell number change turned out to be 14.9%. Besides, under setting [2], the concentration at half-maximal activity (AC50) was 29.1 µM [rising, single point]. As for `O=C(NCc1ccccc1Cl)C1CCCN(S(=O)(=O)c2cccc3nsnc23)C1` (stereo not given), the cell number change was 104%. The AC50 under setting [1] was 9.2 µM [rising, partial curve]. Moreover, the concentration at half-maximal activity (AC50) under setting [2] was 10.3 µM [rising, partial curve]. `COC(=O)C1CCN(c2ccc([N+](=O)[O-])cc2)CC1`: under setting [2], the AC50 was 0.092 µM [falling, full curve]. In the case of `COC(=O)c1ccc(C2/C(=C(\O)c3cccc(OC)c3)C(=O)C(=O)N2CCCN(C)C)cc1` (stereo not given), the cell number change is -8.51%. Under setting [2], the AC50 was 6.51 µM [rising, partial curve].

As to `CC(=O)C1=C(O)C(=O)N(c2cccnc2)C1c1ccc(Cl)cc1` (stereo not given), the cell number change stood at 0.696%. Besides, the AC50 under setting [2] is 16.4 µM [falling, single point].

Turning to `COc1ccc2nc(C)cc(SCC(=O)N/N=C/c3cccc4ccccc34)c2c1`, the cell number change is -134%. In addition, the half-maximal activity concentration (AC50) under setting [1] was 29.1 µM [falling, single point]. Under setting [2], the concentration at half-maximal activity (AC50) was 29.1 µM [falling, single point]. With `O=C(O)c1ccc(CSc2nnc(-c3ccncc3)n2-c2ccc(Br)cc2)cc1`, the cell number change turned out to be 23.1%.

Turning to `Oc1[nH]c2ccccc2c1N=Nc1nc(Nc2ccccc2)nc(N2CCOCC2)n1`, the cell number change was -41.5%. In addition, under setting [1], the half-maximal activity concentration (AC50) is 1.16 µM [falling, full curve]. For the same compound, the AC50 under setting [2] is 1.3 µM [falling, full curve]. `Cc1ccc(CO/N=C/c2c(O)cc(C)oc2=O)cc1`: the cell number change was -4.3%. For the same compound, the AC50 under setting [2] was 0.116 µM [rising, single point]. On to `CCOc1ccc(C(=O)COC(=O)CN2C(=O)NC3(CCCCC3C)C2=O)cc1` (stereo not given), for which the cell number change worked out at 6.81%. Further, the half-maximal activity concentration (AC50) under setting [1] is 0.0517 µM [rising, full curve, poor fit]. The concentration at half-maximal activity (AC50) under setting [2] was 2.06 µM [rising, partial curve]. Regarding `CCOc1ccc(N(CC(=O)N/N=C/c2cc(Br)c(C)o2)S(C)(=O)=O)cc1`, the cell number change is -8.01%. In addition, under setting [2], the AC50 was 0.651 µM [falling, full curve, poor fit]. As to `CCOC(=O)c1nnn(-c2ccccc2C#N)c1C`, the cell number change is -7.52%. In addition, under setting [1], the concentration at half-maximal activity (AC50) was 0.731 µM [rising, single point]. Moreover, the concentration at half-maximal activity (AC50) under setting [2] was 0.731 µM [rising, single point]. As for `CCCCOc1cc(=O)[nH]c(=O)[nH]1`, the cell number change is -32.7%. Moreover, under setting [1], the AC50 is 0.146 µM [falling, full curve]. In addition, the AC50 under setting [2] is 1.16 µM [falling, full curve].

As for `CC(=O)N/C(=C/c1ccc(OS(=O)(=O)c2ccc(C)cc2)cc1)C(=O)Nc1ccc(C(=O)O)cc1`, the cell number change was -5.38%. The concentration at half-maximal activity (AC50) under setting [2] is 0.184 µM [rising, full curve, poor fit]. Consider `Cc1onc(-c2ccccc2)c1C(=O)OCC(=O)Nc1ccccc1`, for which the cell number change stood at 25%. Further, the concentration at half-maximal activity (AC50) under setting [1] was 2.31 µM [rising, full curve, poor fit]. For the compound `NS(=O)(=O)c1ccc(NC(=S)N2CCc3ccccc32)cc1`, the cell number change is -13.8%. The AC50 under setting [2] was 14.6 µM [rising, single point]. Take `CCN(CC)S(=O)(=O)c1cc(NC(=O)C2=COCCO2)ccc1Cl`: the cell number change is -20.4%. Moreover, the AC50 under setting [2] is 6.51 µM [rising, single point]. Consider `COc1cc(NC(=O)CSc2nnnn2Cc2ccccc2)cc(OC)c1`, for which the cell number change worked out at 28.8%. Also, under setting [2], the half-maximal activity concentration (AC50) was 1.46 µM [rising, full curve, poor fit]. With `CC(=O)N1CCN=C1SCc1c(F)cccc1Cl`, the cell number change worked out at 21.2%. Under setting [2], the AC50 was 29.1 µM [rising, single point]. As to `O=C1C=C(c2cc(F)ccc2F)C[C@@H](c2ccc(Cl)cc2)C1`, the cell number change came out at 6.94%. Moreover, under setting [2], the concentration at half-maximal activity (AC50) was 6.51 µM [falling, single point].

`COc1cccc(N2CCN(C(=S)Nc3ccc(F)cc3)CC2)c1`: the cell number change is 36.5%. Besides, the half-maximal activity concentration (AC50) under setting [1] is 20.6 µM [rising, single point].

Consider `O=C(Nc1ccc(O)cc1C(=O)O)c1cccc(Br)c1`, for which the cell number change came out at 31.7%. Further, the half-maximal activity concentration (AC50) under setting [1] was 20.6 µM [rising, single point]. In the case of `COc1cccc(NC(=O)CN2CCN(c3nc(-c4cccc(OC)c4)cs3)CC2)c1`, the cell number change is -17.9%. Further, the concentration at half-maximal activity (AC50) under setting [2] was 29.1 µM [falling, single point]. For the compound `CC(C)c1ccc(C(=O)NCCCN2CCN(CCCNC(=O)c3ccc(C(C)C)cc3)CC2)cc1`, the cell number change is -7.98%. Further, the concentration at half-maximal activity (AC50) under setting [2] was 0.00517 µM [falling, full curve, poor fit]. Take `CCNc1nc(NCC)n2c(SCC(=O)Nc3ccccc3F)nnc2n1`: the cell number change came to 30.6%. For the same compound, the half-maximal activity concentration (AC50) under setting [1] is 0.082 µM [rising, full curve, poor fit]. For the same compound, the AC50 under setting [2] is 0.103 µM [rising, full curve, poor fit].

Consider `CN(Cc1c(C(=O)N/N=C/c2ccccc2)nnn1-c1nonc1N)C1CCCCC1`, for which the cell number change was found to be 22.5%. Take `CCCCCOc1ccc(C(=O)NCC2(c3ccccc3)CCOCC2)cc1`: the cell number change was 13.7%.
